# Percent effect of library compounds

Protein sequences, listed by entry. Tags and fused reporters are not part of them. Residues count along the entry.
UniProt Q8IDJ8, 1-583: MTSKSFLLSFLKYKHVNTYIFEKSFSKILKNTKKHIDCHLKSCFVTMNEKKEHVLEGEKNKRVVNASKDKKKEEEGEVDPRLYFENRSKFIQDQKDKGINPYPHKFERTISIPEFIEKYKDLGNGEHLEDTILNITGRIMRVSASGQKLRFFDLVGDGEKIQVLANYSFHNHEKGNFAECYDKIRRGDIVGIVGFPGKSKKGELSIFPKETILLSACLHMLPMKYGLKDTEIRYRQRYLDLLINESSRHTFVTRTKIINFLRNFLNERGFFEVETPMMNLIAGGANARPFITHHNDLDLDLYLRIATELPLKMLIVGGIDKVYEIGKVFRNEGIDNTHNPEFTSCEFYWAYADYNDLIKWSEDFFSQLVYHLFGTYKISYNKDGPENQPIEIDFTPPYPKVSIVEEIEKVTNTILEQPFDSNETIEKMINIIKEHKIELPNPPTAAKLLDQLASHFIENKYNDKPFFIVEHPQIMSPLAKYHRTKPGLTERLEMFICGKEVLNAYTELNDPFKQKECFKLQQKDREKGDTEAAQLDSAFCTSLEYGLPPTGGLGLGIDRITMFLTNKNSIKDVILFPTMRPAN
UniProt P9WPC5, whole entry: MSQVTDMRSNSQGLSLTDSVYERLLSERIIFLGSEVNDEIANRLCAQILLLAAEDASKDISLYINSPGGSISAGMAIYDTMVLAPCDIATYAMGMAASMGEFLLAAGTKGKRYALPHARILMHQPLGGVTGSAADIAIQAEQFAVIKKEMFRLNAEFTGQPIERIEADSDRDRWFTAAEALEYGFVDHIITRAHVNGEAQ
UniProt P9WPC3, whole entry partner: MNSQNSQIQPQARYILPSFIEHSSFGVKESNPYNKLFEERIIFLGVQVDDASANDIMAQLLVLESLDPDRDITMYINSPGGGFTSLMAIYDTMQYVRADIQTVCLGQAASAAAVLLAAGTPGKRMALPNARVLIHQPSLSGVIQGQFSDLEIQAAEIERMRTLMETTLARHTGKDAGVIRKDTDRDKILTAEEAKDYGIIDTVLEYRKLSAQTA
UniProt P9WFT3, whole entry: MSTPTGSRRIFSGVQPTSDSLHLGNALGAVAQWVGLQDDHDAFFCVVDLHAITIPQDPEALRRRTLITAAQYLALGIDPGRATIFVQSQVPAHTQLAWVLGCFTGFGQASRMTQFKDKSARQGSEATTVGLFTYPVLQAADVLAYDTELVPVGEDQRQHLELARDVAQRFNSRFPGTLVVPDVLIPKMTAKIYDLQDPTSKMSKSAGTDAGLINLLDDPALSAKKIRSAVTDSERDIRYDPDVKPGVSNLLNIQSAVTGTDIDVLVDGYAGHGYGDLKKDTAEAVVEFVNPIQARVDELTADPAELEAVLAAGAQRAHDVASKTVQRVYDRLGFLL

Measurements from “University of Dundee, Small-Polar-MMV Screening Library” (2021), ChEMBL document CHEMBL3988442.

The filed quantity is “Percent Effect” (%).
How 0% and 100% were set is not recorded. Most values in the screen are low, and negative values occur.
The compounds are a random part of those screened.
A dash means the value is not listed here; it may have been measured.

PfKRS1: 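Enzyme assay of the cytosolic lysyl-tRNA synthetase in 384-well plates, read by luminescence. Target: Lysine-tRNA ligase, Plasmodium falciparum 3D7 (UniProt Q8IDJ8). Tested at 30 µM. Direction is inferred from only a few compounds that gave an IC50; most scored high, so higher reads as stronger inhibition. Size under these conditions: about 69,000 compounds, about 49 of them at 50% or above in at least one test.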
ClpP1P2: 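ClpP1P2, Mycobacterium tuberculosis (UniProt P9WPC5 and UniProt P9WPC3). Protease assay of ClpP1P2, read by the AMC dye that it sets free. Concentration: 50 µM. Higher reads as stronger inhibition, judged from the few compounds that gave an IC50. Most other retested compounds had strongly negative values. About 69,000 compounds were tested under these conditions; 0.015% (about 10) showed 50% or more at least once.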
MtTrpRS: 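Enzyme assay of tryptophanyl-tRNA synthetase; the read-out is not stated. Target: Tryptophan-tRNA ligase, Mycobacterium tuberculosis (UniProt P9WFT3). Compounds at 10 µM. Higher most likely means stronger inhibition; the record gives no direction and few retests gave an IC50. Size under these conditions: about 65,000 compounds, about 64 of them at 50% or above in at least one test.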

| # | structure | PfKRS1 | ClpP1P2 | MtTrpRS |
|---|---|---|---|---|
| 1 | `COCCO[C@@H]1CCN(C(=O)c2ccc[nH]2)[C@H]1Cc1cnn(C)c1` | 1.196 | -5.43 | -0.9856 |
| 2 | `Cc1noc(C2CCN(C(=O)c3c(C)noc3C)CC2)n1` | 2.901 | -4.448 | -1.844 |
| 3 | `Cc1cc(C(=O)N2CC[C@](C)(O)[C@H](C)C2)c(C)n1C` | 0.7843 | 9.84 | 1.782 |
| 4 | `COCCNc1ccc(CC2CCCN(C3CCCC3)C2)nn1` (stereo not shown) | 0.9009 | -9.725 | 0.718 |
| 5 | `COc1cccc(N2CCN(Cc3ncc[nH]3)CC2=O)c1` | 9.346 | 0.08319 | -4.739 |
| 6 | `CCc1ccc(C(=O)NC2CCCN(c3ccn(C)n3)C2=O)o1` (stereo not shown) | -3.557 | -2.431 | -0.4112 |
| 7 | `CC1=N[C@@]2(CC[C@@H]3CN(Cc4ccc(C)cc4)C[C@@H]32)C(=O)N1CC1CC1` | 1.836 | 9.624 | -1.658 |
| 8 | `CCc1nnsc1C(=O)N(C)Cc1ccc(Br)o1` | 2.608 | 2.574 | -0.6518 |
| 9 | `NC(=O)c1cnc2n1CCN(C(=O)c1ccc(-c3cc[nH]n3)cc1)C2` | 6.379 | -4.851 | 2.202 |
| 10 | `CC(C)(CNC1CCCN(Cc2ccccn2)C1)CN1CCOCC1` (stereo not shown) | 2.215 | -0.1128 | 2.084 |
| 11 | `CC(C)N(Cc1cccc(Cl)c1)Cc1nc2c(cnn2C)c(=O)[nH]1` | 0.06773 | -41.21 | 3.636 |
| 12 | `O=C1CSC(c2ccc(Cl)cc2Cl)c2c(n(C3CCOCC3)[nH]c2=O)N1` (stereo not shown) | 4.364 | -12.14 | 1.891 |
| 13 | `CSc1ccc(NCC(=O)NCC(=O)N2CCCC2)cc1F` | 1.236 | -4.951 | 0.3458 |
| 14 | `Cc1nc2n(n1)CC(Nc1nc(-c3ccccc3)no1)CC2` (stereo not shown) | 5.582 | -3.837 | 4.81 |
| 15 | `Cc1ncc(CN2CCCC2)c2cc(C(=O)c3ccc(Br)cc3)oc12` | 1.624 | -25.34 | 6.135 |
| 16 | `CC1(C(=O)NCc2cccnc2Oc2ccc(F)c(F)c2)CCCNC1` (stereo not shown) | -1.561 | 1.978 | -0.2974 |
| 17 | `CSc1ccc(CN(C(=O)c2cc(=O)[nH]c(=O)[nH]2)C2CC2)cc1` | 2.062 | -0.6122 | 3.638 |
| 18 | `O=C(c1ccnnc1)N1CCO[C@H]2[C@H](Oc3cccnc3)CC[C@@H]21` | 3.076 | 14.77 | 0 |
| 19 | `CCOCC1CN(C(=O)c2ccsc2)Cc2nn(C)cc21` (stereo not shown) | -0.5564 | -14.99 | -2.604 |
| 20 | `CNC(=O)C1CCC(NC(=O)c2cc(C3CC3)n(C(C)(C)C)n2)CC1` (stereo not shown) | 2.161 | -10.34 | -2.72 |
| 21 | `CCn1cnnc1C1CCN(C(=O)c2ccc(Cl)s2)CC1` | 8.094 | 2.865 | 2.754 |
| 22 | `CCOCC1c2c(ncn2C(C)C)CCN1C(=O)CC` (stereo not shown) | -1.259 | 1.222 | 13.89 |
| 23 | `CC(=O)N1CCN([C@@H]2CN(C(=O)c3ccccc3C)C[C@H]2O)CC1` | 1.449 | -11.41 | -5.074 |
| 24 | `CC(C)c1ncc(Cl)c(C(=O)N2CCN(C3CCCC3)CC2)n1` | 6.135 | 0.4018 | 0.2987 |
| 25 | `CN(C)C(=O)C1OC2(CCN(C(=O)N(C)C)CC2)c2ccccc21` (stereo not shown) | 7.228 | 1.445 | 2.905 |
| 26 | `CCC(=O)N1CCC2(CC1)CC(NC(=O)N(C)C)c1cc(C)ccc12` (stereo not shown) | 1.651 | -20.88 | -5.408 |
| 27 | `CCc1ccc(CN2CCN(c3ccc(Cl)nn3)CC2)nc1` | -3.744 | 3.292 | -2.031 |
| 28 | `Cn1cc(N2CC3(CCN(Cc4nccn4C)C3)CC2=O)cn1` (stereo not shown) | 3.565 | 4.181 | -4.625 |
| 29 | `O=C(NCC1(Sc2ccccc2)CC1)c1ccc(=O)[nH]n1` | 5.58 | 12.86 | 0.8639 |
| 30 | `CNC(=O)NC(=O)C(C)N1CCN(c2ccc(C#N)cc2F)CC1` (stereo not shown) | 1.732 | 1.622 | 0.8909 |
| 31 | `CC(C)n1[nH]c(=O)c2c1NC(=O)CC2c1cccc2cccnc12` (stereo not shown) | 0.1657 | -6.231 | -1.607 |
| 32 | `CCOCc1ncn2c1CN(S(=O)(=O)c1ccc(C)cc1)CC2` | 5.442 | 11.88 | 7.309 |
| 33 | `Cn1cccc1C(=O)N1CCO[C@@H]2CN(Cc3nccs3)C[C@@H]2C1` | 4.664 | -1.086 | - |
| 34 | `CC(=O)N1N=C(Cc2ccccc2)OC1C(=O)NCC(C)C` (stereo not shown) | 1.207 | -11.64 | - |
| 35 | `Cc1ncsc1-c1nc(-c2cccc(CN3CCOCC3)c2)no1` | 1.425 | -3.744 | 2.385 |
| 36 | `O=C([C@@H]1C[C@@H]2CCN(CCc3ccccc3)C[C@H]2O1)N1CCCC1` | -2.085 | 7.638 | -0.5286 |
| 37 | `Cc1ccc(C(=O)CC(SC2CCCCC2)C(=O)O)cc1` (stereo not shown) | -2.037 | -10.66 | 2.716 |
| 38 | `Cc1ccccc1OCCCNC(=O)C1(C)CC(=O)N2C=CC=CC2=N1` (stereo not shown) | -0.331 | -27.24 | -4.023 |
| 39 | `CCc1nccn1-c1cncc(C2CCN(C(=O)COC)CC2)n1` | 2.294 | -7.949 | -13.33 |
| 40 | `CN(C)c1nc(CNC(=O)NC2COc3ccccc32)cs1` (stereo not shown) | 6.033 | -3.405 | 0.455 |
| 41 | `Cn1ccnc1C(NCc1csc(Br)c1)c1ccccc1` (stereo not shown) | 1.918 | -6.878 | 0.4859 |
| 42 | `O=C(CCc1ccccc1)N1CCCCC1C1OCCO1` (stereo not shown) | 4.212 | -3.006 | -3.818 |
| 43 | `CN1CCN(S(=O)(=O)c2cncc(F)c2)c2ccccc2C1` | 7.246 | 4.572 | -2.178 |
| 44 | `O=C(NCCCN1CCOCC1)c1ccn(-c2ccc3ccccn23)n1` | -6.127 | 5.482 | 8.533 |

The last 2 entries again:

* CN1CCN(S(=O)(=O)c2cncc(F)c2)c2ccccc2C1 | PfKRS1: 7.246%; ClpP1P2: 4.572%; MtTrpRS: -2.178%
* O=C(NCCCN1CCOCC1)c1ccn(-c2ccc3ccccn23)n1 | PfKRS1: -6.127%; ClpP1P2: 5.482%; MtTrpRS: 8.533%